Source: patent US12557545B2, “Compound and organic light emitting device comprising the same” (LG Chem, Ltd., priority 2020, dated 2026)

Assay: Organic light emitting device evaluation (compound as dopant of light emitting layer)
Settings: OLED; for Driving voltage (V @ 10 mA/cm^2): compound as dopant of light emitting layer (2:98 with Compound D); for EQE (% @ 10 mA/cm^2) / Lifetime (hr) (T90 @ 500 nit): compound as dopant of light emitting layer; for EQE (% @ 10 mA/cm^2): external quantum efficiency; for Lifetime (hr) (T90 @ 500 nit): time for luminance to fall to 90% of initial luminance (500 nit)

Structure (SMILES) | Driving voltage (V @ 10 mA/cm^2) | EQE (% @ 10 mA/cm^2) | Lifetime (hr) (T90 @ 500 nit)
CC(C)(C)c1ccc(N(c2ccc3c4c5ccc6c(c5ccc4n(-c4ccccc4)c3c2)c2ccc(N(c3ccccc3)c3ccc4ccccc4c3)cc2n6-c2ccccc2)c2ccc3c4c5ccc6c(c5ccc4n(-c4ccccc4)c3c2)c2ccc(N(c3ccccc3)c3ccc4ccccc4c3)cc2n6-c2ccccc2)cc1 [Compound 13] | 4.70 V | 8.68% | 251 h
c1ccc(N(c2ccc3cc(-c4cc5ccccc5o4)ccc3c2)c2ccc3c4c5ccc6c(c5ccc4n(-c4ccccc4)c3c2)c2ccc(N(c3ccccc3)c3ccc4cc(-c5cc7ccccc7o5)ccc4c3)cc2n6-c2ccccc2)cc1 [Compound I, reference compound] | 4.69 V | 6.95% | 69 h
Cc1cccc(N(c2ccc3c4c5ccc6c(c5ccc4n(-c4ccccc4)c3c2)c2ccc(-c3cccc(-c4ccc5c7c8ccc9c(c8ccc7n(-c7ccccc7)c5c4)c4ccc(N(c5cccc(C)c5)c5cccc7c5oc5ccccc57)cc4n9-c4ccccc4)c3)cc2n6-c2ccccc2)c2cccc3c2oc2ccccc23)c1 [Compound 15] | 4.68 V | 8.69% | 254 h
CC(C)(C)c1ccc(N(c2ccc3c4c5ccc6c(c5ccc4n(-c4ccccc4)c3c2)c2ccc(N(c3ccc(-c4ccc5c(c4)c4ccccc4n5-c4ccccc4)cc3)c3ccc4ccccc4c3)cc2n6-c2ccccc2)c2ccc3c4c5ccc6c(c5ccc4n(-c4ccccc4)c3c2)c2ccc(N(c3ccc(-c4ccc5c(c4)c4ccccc4n5-c4ccccc4)cc3)c3ccc4ccccc4c3)cc2n6-c2ccccc2)cc1 [Compound 9] | 4.59 V | 8.73% | 265 h
c1ccc(-n2c3ccccc3c3cc(-c4ccc(N(c5ccc6ccccc6c5)c5ccc6c7c8ccc9c(c8ccc7n(-c7ccccc7)c6c5)c5ccc(N(c6ccc(-c7ccc8c(c7)c7ccccc7n8-c7ccccc7)cc6)c6ccc7ccccc7c6)cc5n9-c5ccccc5)cc4)ccc32)cc1 [Compound H, reference compound] | 4.66 V | 7.11% | 67 h
c1ccc(N(c2ccccc2)c2ccc3c4c5ccc6c(c5ccc4n(-c4ccccc4)c3c2)c2ccc(N(c3ccc4cc(-c5cc7ccccc7o5)ccc4c3)c3ccc4c5c7ccc8c(c7ccc5n(-c5ccccc5)c4c3)c3ccc(N(c4ccccc4)c4ccccc4)cc3n8-c3ccccc3)cc2n6-c2ccccc2)cc1 [Compound 12] | 4.67 V | 8.54% | 275 h
CC(C)(C)c1ccc(N(c2ccc(C(C)(C)C)cc2)c2ccc3c4c5ccc6c(c5ccc4n(-c4ccccc4)c3c2)c2ccc(N(c3ccc(-c4cc5ccccc5o4)cc3)c3ccc4c5c7ccc8c(c7ccc5n(-c5ccccc5)c4c3)c3ccc(N(c4ccc(C(C)(C)C)cc4)c4ccc(C(C)(C)C)cc4)cc3n8-c3ccccc3)cc2n6-c2ccccc2)cc1 [Compound 8] | 4.67 V | 8.69% | 235 h
Cc1cccc(N(c2cccc3c2oc2ccccc23)c2cccc3c2c2c4ccc5c(c4ccc2n3-c2ccccc2)c2c(N(c3ccc(C(C)(C)C)cc3)c3cccc4c3c3c6ccc7c(c6ccc3n4-c3ccccc3)c3c(N(c4cccc(C)c4)c4cccc6c4oc4ccccc46)cccc3n7-c3ccccc3)cccc2n5-c2ccccc2)c1 [Compound 21] | 4.62 V | 8.67% | 258 h
